The source of these data is patent US4996223A, “New organic compounds having opioid properties” (priority 1986, dated 1991).

In the assay the test system is mice. Put plainly: animal or person. Particulars: Mus musculus, sc, read-out: ED50 Abdominal Constriction (Acetic acid). It is filed as in vivo. On the procedure:
Analgesic activity was assessed using two methods in mice--the Hot Plate Test and the Abdominal Constriction Test (acetic acid). The test drug was given by subcutaneous injection and the results expressed as ED50 with 95% confidence intervals.
ED50 and 95% confidence intervals.
mg/kg, subcutaneous injection.

The term ED50 denotes the dose at which the effect has come halfway, by size or by number of responders.

For the compound `CN1CC[C@]23c4c5ccc(O)c4O[C@H]2[C@@H](O)C=C[C@H]3[C@H]1C5` [morphine, reference compound], the ED50 was 0.41 mg/kg.
